These are yes or no findings as the source states them, for the method shown. A result given as binding can be weak or reduced; the word gives no strength.
Target: BSA-calicheamicin (bovine)
Assay: ELISA, peptide phage

Binder	binding
HSWHWPSWWAGGGGGS [Anti-Calicheamicin peptide C2]	binds
SWWFPQWMAQYPGGGS [Anti-Calicheamicin peptide C9]	binds

Source: patent publication US20230071019A1
